PubChem BioAssay AID2685 (National Center for Advancing Translational Sciences (NCATS), 2010)
The other results are listed elsewhere or left out. Shown are side measurements of this screen, not its main read-out; they come without a call. The list favours compounds with an active or inconclusive main result. The note in brackets gives the kind of curve behind each potency; many fits are weak.

Assay: qHTS Assay for Lipid Storage Modulators in Drosophila S3 Cells;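 as to cell number change: cells counted by Cell Tracker Red CMTPX staining in the red channel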
Settings: BODIPY lipid droplet fluorescence, 18-24 h; for cell number change: measured here: cell count max response, cells fed with added oleic acid
Summary of the method: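 Laser-scanning cytometry quantifies lipid droplet accumulation (500–530 nm total intensity; droplet/cell object ratio) in oleic acid-fed (400 uM added) Drosophila S3 cells treated with a concentration series. 20 uM Triacsin C defined 100% inhibition.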

[1] = measured here: lipid fluorescence (Fed channel) AC50, cells fed with added oleic acid
[2] = measured here: cell number channel AC50, cells fed with added oleic acid

Row | SMILES | cell number change [%] | AC50 [1] | AC50 [2]
1 | Cc1ccccc1NC(=O)NCCc1c[nH]c2ccccc12 | 11.5 | – | –
2 | Cc1ccc(C2(C)NC(=O)N(CC(=O)Nc3ccc4[nH]c(=O)[nH]c4c3)C2=O)cc1 (stereo unspecified) | 9.44 | – | –
3 | CC(=O)c1cccc(NC(=O)c2cccc(S(=O)(=O)N(C)C)c2)c1 | -15.6 | 1840 nM [rising, partial curve] | –
4 | COc1ccc(-c2cc(C)no2)cc1S(=O)(=O)N1CCN(c2cccc(C)c2)C(C)C1 (stereo unspecified) | 31.2 | 5170 nM [rising, single point] | 32600 nM [rising, single point]
5 | COc1cc(OC)cc(-c2nnc(SCc3cccnc3)o2)c1 | -11.3 | 517 nM [rising, full curve] | –
6 | CCOc1ccc(CCNC(=O)c2ccc(C)c(N3CCCC3=O)c2)cc1OCC | -60.4 | 580 nM [falling, full curve] | 517 nM [falling, full curve, poor fit]
7 | CC1=C(C(=O)OCc2ccccc2)C(c2cccc3ccccc23)NC(=O)N1CCCC(=O)O (stereo unspecified) | 21.8 | 10300 nM [rising, partial curve, poor fit] | –
8 | O=C(CNCc1ccc(F)cc1)Nc1ccc(C(=O)N2CCCCC2)cc1 | 33.8 | – | –
9 | O=C(O)CC12CC3CC(C1)CC(n1ncc(NCc4ccc(F)cc4)c(Cl)c1=O)(C3)C2 | 12.3 | 731 nM [rising, single point] | –
10 | S=C(NCc1ccco1)Nc1ccc(Cl)c(Cl)c1 | -12.6 | 6510 nM [falling, full curve] | –
11 | CCN(CC)S(=O)(=O)c1ccc(C(=O)N(c2ccc(C)cc2)C2C=CS(=O)(=O)C2)cc1 (stereo unspecified) | 1.22 | 32600 nM [rising, single point] | –
12 | COc1ccc(C(=O)Nc2ccccc2C(=O)N2CCCCC2C)cc1 (stereo unspecified) | -18.2 | – | –
13 | Cc1cc(O)c(C(C)C)cc1NC(=O)c1ccc(Cl)cc1 | -45 | 731 nM [falling, full curve] | 92 nM [falling, full curve]
14 | C=CCN(c1ccc(C(=O)Nc2ccc(NC(C)=O)cc2)cc1)S(C)(=O)=O | 5.74 | 517 nM [falling, single point] | –
15 | COc1ccc2cc(CN(CCO)C(=O)c3ccc(Br)cc3)c(=O)[nH]c2c1 | -12 | 29100 nM [rising, single point] | –
16 | N#Cc1ccc(COc2cccnc2[N+](=O)[O-])cc1 | 24.4 | – | –
17 | CC1=NN(c2ccccc2)C(=O)/C1=C/c1cc(C)n(C2CC2)c1C | – | 651 nM [rising, single point] | 820 nM [rising, single point]
18 | CNCCCOc1ccc(C)cc1Br | – | 651 nM [falling, single point] | –
19 | Cc1nn(-c2ccc(C(=O)NCC(c3ccco3)N3CCCC3)cc2)c(C)c1Cl (stereo unspecified) | -9.42 | 1030 nM [falling, full curve] | –
20 | COc1ccc(-c2cn3c(C)c(C(=O)N4CCN(c5ccc(F)cc5)CC4)sc3n2)cc1 | 15.2 | 36.6 nM [rising, full curve, poor fit] | –
21 | COc1ccc(N(CC(=O)NCCSCc2cccc(Cl)c2)S(C)(=O)=O)cc1Cl | -23.7 | 29100 nM [falling, single point] | –
22 | O=C(NCc1ccc(F)cc1)C1CCCN1C(=O)Nc1ccccc1 (stereo unspecified) | 3.41 | 1460 nM [falling, full curve, poor fit] | –

Row | SMILES | cell number change [%] | AC50 [1] | AC50 [2]
23 | COc1cc(OC)cc(C(=O)NC(=S)NCCc2ccccc2)c1 | -14.1 | – | –
24 | COc1cccc(NC(=O)c2cc(CN3C(=O)c4ccccc4C3=O)ccc2OC)c1 | – | 2590 nM [rising, full curve] | –
25 | Cc1cc(/C=C2\SC(N)=NC2=O)c(C)n1-c1ccccc1 | 15.6 | 4110 nM [falling, partial curve, poor fit] | –
26 | Cc1ccc2nc(Cl)nc(-c3ccccc3)c2c1 | 14.3 | 10.3 nM [rising, full curve, poor fit] | –
27 | CC(NC(=O)CN1C(=O)NC2(CCCC2)C1=O)c1ccc2ccccc2c1 (stereo unspecified) | -3.4 | 517 nM [falling, single point] | –
28 | O=C(c1ccc(S(=O)(=O)Nc2ccc(F)cc2)cc1)N1CCN(c2ccccn2)CC1 | -5.87 | – | –
29 | CCOC(=O)c1cccc(N2C(=O)c3ccccc3S2(=O)=O)c1 | -15.6 | 25900 nM [rising, single point] | –
30 | CCOc1ccc(Cl)cc1C(c1c(C)[nH][nH]c1=O)c1c(C)[nH][nH]c1=O | -8.24 | 6510 nM [rising, single point] | –
31 | COc1ccc(CCc2nnc(N)s2)cc1OC | -19.9 | – | –
32 | Nc1nc(N)nc(-c2ccc(Cl)cc2)n1 | -3.44 | – | –
33 | O=C(CCSCc1ccccc1Cl)N1CCN(c2ccccn2)CC1 | -6.71 | – | 461 nM [rising, full curve, poor fit]
34 | O=C(COC(=O)COc1ccc(Cl)cc1)NC1CCCC1 | 11.7 | 4610 nM [rising, partial curve] | –
35 | Cc1sc2ncnc(NCC3COc4ccccc4O3)c2c1C (stereo unspecified) | -38.4 | 2060 nM [falling, full curve] | 4610 nM [falling, full curve, poor fit]
36 | CS(=O)c1nc(-c2ccc(Br)cc2)cc(-c2ccccc2)c1C#N (stereo unspecified) | -25.4 | – | –
37 | CN1CCN(c2ccc(NC(=O)c3sc4ccccc4c3Cl)cc2)CC1 | 20.6 | – | –
38 | O=C(NCCS(=O)(=O)N1CCCCCC1)c1ccc(F)cc1 | -4.18 | 6510 nM [falling, single point] | –
39 | O=C(Nc1ccccc1)n1ccc(-c2ccc(-n3ccnc3)cc2)n1 | -20.8 | 29100 nM [falling, single point] | –
40 | O=C(Nc1ccccc1F)C(=O)Nc1cccc2ccccc12 | 8.8 | – | –
41 | O=C(c1ccc2ccccc2n1)N1CCN(c2ccccc2O)CC1 | -54 | 29100 nM [rising, single point] | –
42 | COc1cc(C(C)=O)ccc1OCC(O)CN(CCO)Cc1ccccc1 (stereo unspecified) | 55.5 | – | –
43 | O=C(Nc1nc(-c2cccs2)cs1)c1ccc(S(=O)(=O)N2CCCC2)cc1 | -21.5 | – | 517 nM [falling, full curve, poor fit]
44 | COc1ccc2[nH]c(=O)c(CN(C)C(=O)C3CCCCC3)cc2c1 | -23.2 | 2310 nM [rising, single point] | 4.11 nM [falling, full curve, poor fit]

Complete entries, looked up by structure.
O=C(CNCc1ccc(F)cc1)Nc1ccc(C(=O)N2CCCCC2)cc1 reads cell number change [%]: 33.8
CCOC(=O)c1cccc(N2C(=O)c3ccccc3S2(=O)=O)c1 reads cell number change [%]: -15.6; AC50 [1]: 25900 nM [rising, single point]

Later entries:

Row | SMILES | cell number change [%] | AC50 [1] | AC50 [2]
45 | CCOc1ccccc1NC(=O)CSc1nc2ccccc2nc1N1CCOCC1 | -2.02 | 6510 nM [rising, partial curve, poor fit] | –
46 | COc1ccc(NC(=O)c2cc(Cl)ccc2NC(=O)c2ccco2)c(OC)c1 | – | 23100 nM [rising, partial curve] | 1640 nM [rising, partial curve]
47 | CN(C)C1=NC[C@H](Cc2ccccc2)N1CCc1cccc(F)c1 | 11.9 | 3260 nM [falling, partial curve] | –
48 | COCCn1c(C)cc(C(=O)COC(=O)CCc2ccc(S(=O)(=O)N3CCOCC3)cc2)c1C | 12.8 | – | 1300 nM [rising, full curve, poor fit]
49 | COc1ccc(-c2noc(-c3ccccc3C(=O)N3CCOCC3)n2)cc1 | – | 6510 nM [falling, single point] | –
50 | COc1ccc2c(c1)O[C@H](c1ccc3c(c1)OCO3)[C@@H](OC(=O)N[C@H]1CCCc3ccccc31)C2=O | 12.4 | 1300 nM [rising, partial curve] | –
51 | CCC(=O)Nc1ccc(N2CCN(Cc3ccccc3)CC2)cc1 | -8.01 | 20600 nM [rising, single point] | 651 nM [falling, single point]
52 | CCc1ccc(NC(=O)CSc2nc3nc(C)cc(C)n3n2)cc1 | -41.3 | 29100 nM [falling, single point] | 29100 nM [falling, single point]
53 | Cc1ccc(S(=O)(=O)N2CCN(C(=O)Cc3sc(C)nc3-c3ccc(F)cc3)CC2)c(C)c1 | 45 | 11600 nM [rising, partial curve] | 5800 nM [rising, partial curve]
54 | Cc1nc(C)c(-c2ccc(SCc3ccccc3C)nn2)s1 | -12.8 | 3260 nM [rising, single point] | –
55 | COc1cc(/C=C/C(C)=O)cc(OC)c1OC | 27.4 | – | –
56 | CCCN(CCC)C(=O)c1ccc2c(c1)S(=O)(=O)c1ccccc1C2=O | -23.3 | – | –
57 | O=C1Nc2ccccc2/C1=N/N=C/c1ccc(-c2ccc([N+](=O)[O-])cc2)o1 | 2.64 | 146 nM [rising, partial curve, poor fit] | –
58 | Cc1nc2ccc(NC(=O)c3ccc([N+](=O)[O-])cc3)cc2[nH]1 | -14.4 | 18400 nM [falling, single point] | –
59 | O=C(CN1C(=O)NC2(CCCC2)C1=O)OCc1ccc(Br)cc1 | 66 | – | –
60 | CN(CC(=O)Nc1ccc(F)cc1)C(=O)c1ccccc1Sc1ccccc1C#N | 7.74 | – | –
61 | COc1ccccc1N1CCN(C(=O)CC(NC(=O)c2ccccc2Cl)c2ccccc2)CC1 (stereo unspecified) | 37.8 | – | –
62 | CCSC1=C(C#N)C(c2cccc(O)c2)CC(=O)N1 (stereo unspecified) | 11 | 1460 nM [rising, partial curve, poor fit] | –
63 | OCCC1CN(Cc2cccn2-c2nccs2)CCN1CCc1ccccc1 (stereo unspecified) | -1.54 | 1840 nM [rising, partial curve, poor fit] | –
64 | CCOc1ccc(CCNC(=O)COC(=O)c2c(OC)cccc2OC)cc1OCC | -47.9 | 14600 nM [falling, partial curve, poor fit] | 32600 nM [falling, partial curve, poor fit]

Arranged by length of the SMILES (low to high): some entries from above.
Row | SMILES | cell number change [%] | AC50 [1] | AC50 [2]
37 | CN1CCN(c2ccc(NC(=O)c3sc4ccccc4c3Cl)cc2)CC1 | 20.6 | – | –
14 | C=CCN(c1ccc(C(=O)Nc2ccc(NC(C)=O)cc2)cc1)S(C)(=O)=O | 5.74 | 517 nM [falling, single point] | –
20 | COc1ccc(-c2cn3c(C)c(C(=O)N4CCN(c5ccc(F)cc5)CC4)sc3n2)cc1 | 15.2 | 36.6 nM [rising, full curve, poor fit] | –
